According to paper doi:10.1101/2021.01.21.427566:
Construct, isoform or probe ends are uncertain for at least one entry. For part of these data: At least one verdict was read from the data and is not stated in words by the source.

How the values were obtained:
Assay in all cases: fluorescence anisotropy
[1] = system: Smc (wild type) + ScpA + ScpB; conditions: 1 mM ATP, 2 mM Mg2+
[2] = system: Smc3S(Y944C), M3M cross-link reduced by DTT + ScpA + ScpB; conditions: 1 mM ATP, 2 mM Mg2+, DTT added, little effect on binding
[3] = system: Smc3S(Y944C), M3M cross-linked + ScpA + ScpB; conditions: 1 mM ATP, 2 mM Mg2+, M3M cross-linked arms, binding not substantially hindered

Measured: binding result

TTAGTTGTTCGTAGTGCTCGTCTGGCTCTGGATTACCCGC (double strand) [dsDNA40]
binds: all assays above
